Taken from: PubChem BioAssay AID1259308 (NCATS, 2017)

Screen: 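Knock-downs that increase output of a recombinant reporter protein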 (primary screen)
Cells: human HEK293 embryonic kidney cells stably expressing firefly luciferase (HEK-CMV-Luc2-Hygro)
Knock-down reagent: single siRNA against human genes, 0.8 pmol siRNA per well
Timing: 72 h
Measured: 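Reporter luminescence and viable-cell signal on separate replicate plates, given as percent of non-targeting control and median/MAD z-scores, plus per-cell luciferase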
Scale: total luciferase, z-score and total luciferase, % of control: higher = more reporter protein produced; luciferase per cell, z-score: higher = more reporter output per viable cell; viable cells, % of control: higher = more viable cells
Call rule: 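Active when the median/MAD z-score for overall luciferase is greater than 3; a gene was taken forward for validation with new siRNAs if at least two of its three siRNAs passed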
Calls: active = raised luciferase; inactive = no rise
The deposit covers about 59,000 reagents; below is a random part of them. About 1,510 of them (2.6%) were called active. 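Calls use total luciferase alone and ignore viability, so some active siRNAs may act by altering cell number.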 A number with no mark means an inactive call. The numbers tell different reagents against one gene apart.

no.	target gene	reagent	total luciferase, z-score	total luciferase, % of control	luciferase per cell, z-score	viable cells, % of control
1	RPS24P4 (ribosomal protein S24 pseudogene 4)	1	-0.334	75.2	0.189	80
2	RPS24P4 (ribosomal protein S24 pseudogene 4)	2	1.01	102	2.42	60.2
3	RPS24P4 (ribosomal protein S24 pseudogene 4)	3	-0.0677	80.5	-0.132	93.2
4	UGGT2 (UDP-glucose glycoprotein glucosyltransferase 2)	1	-0.8	66	0.105	71.7
5	UGGT2 (UDP-glucose glycoprotein glucosyltransferase 2)	2	1.91	120	1.5	90.1
6	UGGT2 (UDP-glucose glycoprotein glucosyltransferase 2)	3	-0.0682	80.5	0.0161	89.6
7	DPEP1 (dipeptidase 1)	1	-0.465	72.6	0.105	79
8	DPEP1 (dipeptidase 1)	2	-1.01	61.8	-0.857	86.6
9	DPEP1 (dipeptidase 1)	3	3.19 (active)	145	3.63	62.5
10	TBC1D24 (TBC1 domain family member 24)	1	1.28	107	1.52	80.4
11	TBC1D24 (TBC1 domain family member 24)	2	3.87 (active)	159	2.56	90.6
12	TBC1D24 (TBC1 domain family member 24)	3	0.216	86.2	1.53	64.4
13	CLCN2 (chloride voltage-gated channel 2)	1	0.563	93.1	0.313	95.8
14	CLCN2 (chloride voltage-gated channel 2)	2	-0.147	79	-0.675	105
15	CLCN2 (chloride voltage-gated channel 2)	3	1.06	103	0.693	95.9
16	STK10 (serine/threonine kinase 10)	1	-1.89	44.3	-1.49	73.1
17	STK10 (serine/threonine kinase 10)	2	1.1	104	0.567	99.9
18	STK10 (serine/threonine kinase 10)	3	3.19 (active)	145	1.8	101
19	SMYD1 (SET and MYND domain containing 1)	1	-0.161	78.7	0.375	79.7
20	SMYD1 (SET and MYND domain containing 1)	2	0.712	96.1	0.909	84.5
21	SMYD1 (SET and MYND domain containing 1)	3	-0.334	75.3	0.466	74.4
22	SYNGAP1 (synaptic Ras GTPase activating protein 1)	1	-0.836	65.3	-1.41	106
23	SYNGAP1 (synaptic Ras GTPase activating protein 1)	2	-0.908	63.8	-0.997	92.7
24	SYNGAP1 (synaptic Ras GTPase activating protein 1)	3	-0.732	67.3	0.00527	75.1
25	SHANK3 (SH3 and multiple ankyrin repeat domains 3)	1	-0.0135	81.6	-0.22	96.6
26	SHANK3 (SH3 and multiple ankyrin repeat domains 3)	2	-1.16	58.8	-1.58	99.6
27	SHANK3 (SH3 and multiple ankyrin repeat domains 3)	3	0.53	92.4	-0.037	104
28	WNT3 (Wnt family member 3)	1	1.09	104	1.24	83.4
29	WNT3 (Wnt family member 3)	2	-0.748	67	-0.173	78.4
30	WNT3 (Wnt family member 3)	3	-0.445	73	-0.826	101
31	KPNA4 (karyopherin subunit alpha 4)	1	-0.789	66.2	-0.385	81.9
32	KPNA4 (karyopherin subunit alpha 4)	2	0.48	91.4	-0.447	115
33	KPNA4 (karyopherin subunit alpha 4)	3	1.15	105	0.787	95.1
34	MAP3K1 (mitogen-activated protein kinase kinase kinase 1)	1	1.42	110	1.41	85
35	MAP3K1 (mitogen-activated protein kinase kinase kinase 1)	2	0.479	91.4	-0.0891	105
36	MAP3K1 (mitogen-activated protein kinase kinase kinase 1)	3	0.372	89.3	-0.0449	101
37	CCT6A (chaperonin containing TCP1 subunit 6A)	1	3.81 (active)	158	3.44	71.2
38	CCT6A (chaperonin containing TCP1 subunit 6A)	2	2.14	124	1.85	85.4
39	CCT6A (chaperonin containing TCP1 subunit 6A)	3	0.447	90.8	1.4	70.3

Ordered by “total luciferase, % of control” (ascending): 3 of the entries above
target gene	reagent	total luciferase, z-score	total luciferase, % of control	luciferase per cell, z-score	viable cells, % of control
STK10 (serine/threonine kinase 10)	1	-1.89	44.3	-1.49	73.1
STK10 (serine/threonine kinase 10)	2	1.1	104	0.567	99.9
STK10 (serine/threonine kinase 10)	3	3.19 (active)	145	1.8	101
